According to US20100266575A1:
No constants are given. Whether binding was seen depends on the method and setting. Some results given as binding are weak or reduced against the parent protein; the word gives no strength.

Protein sequences, listed by entry. Tags and fused reporters are not part of them. Lines headed by an entry give the natural chain unless they say otherwise; changes in a name come on top.
UniProt P17948: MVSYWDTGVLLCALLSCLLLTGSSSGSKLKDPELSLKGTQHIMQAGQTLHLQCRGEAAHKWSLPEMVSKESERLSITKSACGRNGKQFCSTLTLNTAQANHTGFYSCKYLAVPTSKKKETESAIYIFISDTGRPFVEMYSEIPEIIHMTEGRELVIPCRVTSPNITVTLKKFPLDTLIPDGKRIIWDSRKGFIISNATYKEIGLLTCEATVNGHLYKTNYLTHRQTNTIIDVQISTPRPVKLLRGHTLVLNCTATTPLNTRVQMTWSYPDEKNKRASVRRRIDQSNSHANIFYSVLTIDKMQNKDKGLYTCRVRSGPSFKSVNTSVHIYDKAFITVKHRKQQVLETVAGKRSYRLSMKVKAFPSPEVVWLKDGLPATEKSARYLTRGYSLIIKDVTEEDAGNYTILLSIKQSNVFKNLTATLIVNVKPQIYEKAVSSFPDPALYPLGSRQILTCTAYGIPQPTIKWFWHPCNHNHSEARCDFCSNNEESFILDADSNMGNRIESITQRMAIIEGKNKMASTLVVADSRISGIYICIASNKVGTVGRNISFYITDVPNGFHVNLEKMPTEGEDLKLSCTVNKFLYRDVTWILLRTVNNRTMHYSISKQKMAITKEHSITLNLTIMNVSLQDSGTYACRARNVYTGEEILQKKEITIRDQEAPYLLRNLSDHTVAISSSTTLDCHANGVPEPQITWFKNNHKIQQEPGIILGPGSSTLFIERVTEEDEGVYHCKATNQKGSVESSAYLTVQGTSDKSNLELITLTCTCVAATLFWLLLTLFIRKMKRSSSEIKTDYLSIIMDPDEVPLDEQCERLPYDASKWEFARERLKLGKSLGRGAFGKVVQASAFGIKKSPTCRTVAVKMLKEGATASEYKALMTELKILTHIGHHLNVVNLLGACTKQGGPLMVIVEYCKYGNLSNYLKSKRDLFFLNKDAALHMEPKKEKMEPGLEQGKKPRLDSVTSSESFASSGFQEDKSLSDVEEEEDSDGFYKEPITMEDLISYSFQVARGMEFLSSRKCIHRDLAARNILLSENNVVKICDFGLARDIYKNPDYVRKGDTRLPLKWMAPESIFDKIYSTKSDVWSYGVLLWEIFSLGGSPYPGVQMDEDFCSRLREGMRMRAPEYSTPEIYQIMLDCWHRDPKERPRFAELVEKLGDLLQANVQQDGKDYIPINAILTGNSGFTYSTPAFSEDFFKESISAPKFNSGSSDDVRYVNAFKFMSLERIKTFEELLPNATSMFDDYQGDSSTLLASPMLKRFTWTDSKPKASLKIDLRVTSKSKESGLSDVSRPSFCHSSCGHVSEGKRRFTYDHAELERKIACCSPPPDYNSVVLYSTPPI

Assays:
[1] = molecular target: sFlt-1 (R&D Systems; construct not stated) (human) (UniProt P17948); assay: … sandwich: 1-833-527 on microparticles, 321 conjugate, sFlt-1 free and complexed with PlGF
[2] = molecular target: sFlt-1 domains 1-6:Fc chimera from Sf21 cells using baculovirus (human) (UniProt P17948); assay: double-mAb sandwich CMIA on … (Example 7); positive = RLU > 400,000 at 1,000 pg/mL calibrator
[3] = molecular target: sFlt-1 (R&D Systems; construct not stated) (human) (UniProt P17948); assay: chemiluminescence immunoassay: supernatant antibody captured on anti-mouse IgG Fc, sFlt-1, PlGF-ACR tracer
[4] = molecular target: sFlt-1 (R&D Systems; construct not stated) (human) (UniProt P17948); assay: competitive inhibition ELISA: sFlt-1 held on coated PlGF, biotin-labeled 1-833-217

| binding [1] | binding [2] | binding [3] | binding [4] | Binder |
| --- | --- | --- | --- | --- |
| binds | binds | binds |  | anti-sFlt-1 monoclonal antibody 1-833-527 (antibody, V domains shown) VH: QVQLQQSGAELVGPGSSVKISCKASGYAFSSYWMNWVKQRPGQGLEWIGQIYPGDGDTNYNGKFRGKVTLTADRSSSTADMQLSSLTSEDSAVYFCARDDGYEGFDYWGQGTTLTVSS VL: DIVMTQSQKFMSTTVGDRVSLTCKASQSVGTAVAWYQEKTGQSPKLLIYSASNRYTGVPDRFTGSGSGTDFILTIRNMQSVDLADYFCQQYFTYPYTFGGGTKLEIQR |
|  |  | binds | binds | anti-sFlt-1 monoclonal antibody 1-833-217 (antibody, V domains shown) VH: QVQLQQSGAELVGPGSSVKISCKASGYAFSSYWMNWVKQRPGQGLEWIGQIYPGDGDTNYNGKFRGKVTLTADRSSSTADMQLSSLTSEDSAVYFCARDDGYEGFDYWGQGTTLTVSS VL: DIVMTQSQKFMSTTVGDRVSLTCKASQSVGTAVAWYQEKTGQSPKLLIYSASNRYTGVPDRFTGSGSGTDFILTIRNMQSVDLADYFCQQYFTYPYTFGGGTKLEIQR |
